HELM strings list residues between dots; [ac] is acetyl, [am] amide, other brackets name non-standard units.
Assay: general procedure: Fmoc solid-phase peptide synthesis; Wang resin preloaded with Fmoc-Phe (0.5 g, Phe loading 0.4–0.8 mmol/g); TBTU/HOBt/DIPEA; HATU/DIPEA for cyclization
Details: cyclisation step, DAD 210 nm

In the case of “PEPTIDE1{F.G.[bAla].[dW]}$PEPTIDE1,PEPTIDE1,1:R1-4:R2$$$V2.0”, the “final HPLC purity” value is reported as greater than 95%.

Source: PMC7066533 (Frontiers in Pharmacology, 2020)
